This passage reports survivor count and T/C results from PubChem BioAssay AID248 (DTP/NCI, 2004).

This assay deals with L1210 leukemia ip in BDF1 mice, survival T/C. The assay can be described thus: NCI In Vivo Anticancer Drug Screen. Data for tumor model L1210 Leukemia (intraperitoneal) in B6D2F1 (BDF1) mice. Particulars: T/C endpoint: mean survival time, higher T/C = longer survival.
The mark [1] stands for this setting: dose: 200.0 mg/kg/injection, schedule: Q01DX001 (ip), vehicle: Klucel (hydroxypropylcellulose) (HPC).
Setting [2] is: dose: 300.0 mg/kg/injection, schedule: Q01DX001 (ip), vehicle: saline.
Setting [3] is: dose: 150.0 mg/kg/injection, schedule: Q01DX001 (ip), vehicle: saline.
Where [4] appears, read: dose: 200.0 mg/kg/injection, schedule: Q01DX001 (ip), vehicle: saline.
Setting [5] is: dose: 9.37 mg/kg/injection, schedule: Q01DX001 (ip), vehicle: saline.
[6] abbreviates: dose: 18.75 mg/kg/injection, schedule: Q01DX001 (ip), vehicle: saline.
The mark [7] stands for this setting: dose: 37.5 mg/kg/injection, schedule: Q01DX001 (ip), vehicle: saline.

The list shows only some results of the screen, not a fair sample: it is rich in T/C values a quarter to a half above the control, in often repeated tests (any T/C) and in doses without a T/C. Other doses and runs of a compound stand elsewhere. T/C: endpoint of the treated group in % of that of the vehicle group. Some entries give survivors of the animals treated and no T/C: the source holds a T/C of zero for them, seemingly a mark for toxic or unscored doses. Some doses without a T/C left all or most animals alive at the check, yet need not have been tolerated: survival well below the control is almost never listed, so the zero probably covers shortened survival too. Survivors were counted at the toxicity check, usually on the fifth day, unless a day is given; later deaths do not show. Schedules are NCI's codes, taken here to give the interval after Q, in days (D) or hours (H), and the number of doses after X. For survival time, the PubChem record calls one and a half times the control and up active, and a quarter to a half above the control has no call in these data; cut-offs in other NCI protocols can differ. Some entries were tested several times; their values stand side by side, smallest first.

With `N=C(N)c1ccc(-c2[nH]c3cc(C(=N)N)ccc3c2-c2ccccc2)cc1`, the survivor count runs as follows: (dose: 100.0 mg/kg/injection, schedule: Q04DX003 (ip), vehicle: saline with Tween-80) 2 of 4; (dose: 200.0 mg/kg/injection, schedule: Q04DX003 (ip), vehicle: saline with Tween-80) 0 of 4; (dose: 400.0 mg/kg/injection, schedule: Q04DX003 (ip), vehicle: saline with Tween-80) 0 of 4.

On to `COc1ccc([N+](=O)[O-])cc1CNCCBr`, for which, where the note is “dose: 100.0 mg/kg/injection, schedule: Q01DX001 (ip), vehicle: Klucel (hydroxypropylcellulose) (HPC)”, the T/C is 125 % of control. The survivor count is given as 0 of 6 under setting [1] and 0 of 6 (dose: 400.0 mg/kg/injection, schedule: Q01DX001 (ip), vehicle: Klucel (hydroxypropylcellulose) (HPC)).

Take `O=C(O)/C=C(\CC(=O)O)C(=O)O`: the survivor count under setting [1] was 6 of 6.

Turning to `CCC1(c2ccccc2)C(=O)NC(=O)NC1=O`, the survivor count under setting [2] is listed as 1 of 6.

Consider `COC(=O)C(c1ccccc1)C1CCCCN1` (configuration not stated), for which the survivor count (dose: 100.0 mg/kg/injection, schedule: Q01DX009 (ip), vehicle: saline) is on record as 0 of 6; the survivor count (dose: 200.0 mg/kg/injection, schedule: Q04DX003 (ip), vehicle: saline) is reported as 4 of 4; the survivor count (dose: 400.0 mg/kg/injection, schedule: Q04DX003 (ip), vehicle: saline) is given as 0 of 4.

As to `NC(Cn1cc(N(CCCl)CCCl)c(=O)[nH]c1=O)C(=O)O` (configuration not stated), the T/C is 128 % of control (dose: 10.0 mg/kg/injection, schedule: Q01DX009 (ip), vehicle: water); 130 % of control (dose: 14.0 mg/kg/injection, schedule: Q01DX009 (ip), vehicle: saline); 127 % of control (dose: 14.0 mg/kg/injection, schedule: Q01DX009 (ip), vehicle: water); 130 % of control (dose: 20.0 mg/kg/injection, schedule: Q01DX009 (ip), vehicle: water); 128 % of control (dose: 22.0 mg/kg/injection, schedule: Q01DX009 (ip), vehicle: saline); 136 % of control (dose: 27.0 mg/kg/injection, schedule: Q01DX009 (ip), vehicle: saline). Further, the T/C runs as follows: (dose: 30.0 mg/kg/injection, schedule: Q01DX009 (ip), vehicle: water) 136 % of control; (dose: 45.0 mg/kg/injection, schedule: Q01DX001 (ip), vehicle: saline) 132 % of control; (dose: 50.0 mg/kg/injection, schedule: Q01DX001 (ip), vehicle: saline) 125 % of control; (dose: 66.6 mg/kg/injection, schedule: Q01DX001 (ip), vehicle: saline) 143 % of control; (dose: 75.0 mg/kg/injection, schedule: Q01DX001 (ip), vehicle: saline) 129 % of control; (dose: 100.0 mg/kg/injection, schedule: Q01DX001 (ip), vehicle: saline) 135 and 137 % of control. Besides, under setting [3], the T/C is 137 % of control. In addition, the survivor count is, setting by setting: (dose: 50.0 mg/kg/injection, schedule: Q01DX009 (ip), vehicle: saline) 5 of 6; (dose: 60.0 mg/kg/injection, schedule: Q01DX009 (ip), vehicle: water) 3 of 6; (dose: 120.0 mg/kg/injection, schedule: Q01DX009 (ip), vehicle: water) 0 of 6; under setting [3], 1 of 4; under setting [4], 0 of 4; under setting [2], 0 of 4.

`CCCCOC(=O)C=O`: under “dose: 200.0 mg/kg/injection, schedule: Q01DX009 (ip), vehicle: saline with Tween-80”, the survivor count was 2 of 3.

For the compound `NC(=O)N1CCN(CCCN2c3ccccc3Sc3cc(Cl)ccc32)CC1`, the survivor count by setting is: (dose: 50.0 mg/kg/injection, schedule: Q01DX009 (ip), vehicle: Klucel (hydroxypropylcellulose) (HPC)) 0 of 6; (dose: 100.0 mg/kg/injection, schedule: Q01DX009 (ip), vehicle: Klucel (hydroxypropylcellulose) (HPC)) 0 of 6; (dose: 200.0 mg/kg/injection, schedule: Q04DX003 (ip), vehicle: Klucel (hydroxypropylcellulose) (HPC)) 1 of 4; (dose: 400.0 mg/kg/injection, schedule: Q04DX003 (ip), vehicle: Klucel (hydroxypropylcellulose) (HPC)) 0 of 4.

Turning to `CCN(CC)CC#N`, the survivor count is, setting by setting: (dose: 16.0 mg/kg/injection, schedule: Q01DX009 (ip), vehicle: saline) 3 of 6; (dose: 32.0 mg/kg/injection, schedule: Q01DX009 (ip), vehicle: saline) 0 of 6.

On to `NCCc1cc(O)c(O)c(O)c1`, for which the T/C (dose: 200.0 mg/kg/injection, schedule: Q01DX009 (ip), vehicle: saline) was 125 % of control and the T/C (dose: 400.0 mg/kg/injection, schedule: Q01DX009 (ip), vehicle: saline) was 147 % of control.

On to `CN(C)CCCn1c(=O)c2ccccc2c2ccccc21`, for which the survivor count reads like this: under setting [4], 0 of 4; (dose: 200.0 mg/kg/injection, schedule: Q01DX015 (ip), vehicle: saline) 0 of 6; (dose: 400.0 mg/kg/injection, schedule: Q01DX001 (ip), vehicle: saline) 0 of 4.

With `C=CC1=CC(=O)OC1=O`, the survivor count was 2 of 6 under setting [5]; 2 of 6 under setting [6]; 2 of 6 (dose: 20.0 mg/kg/injection, schedule: Q01DX001 (ip), vehicle: saline); 0 of 6 under setting [7]; 2 of 6 (dose: 40.0 mg/kg/injection, schedule: Q01DX001 (ip), vehicle: saline).

On to `CN(C)[C@@H]1C(=O)C(C(=O)NCN2CCN(C(=N)N=C(N)N)CC2)=C(O)[C@@]2(O)C(=O)C3=C(O)c4c(O)cccc4[C@@](C)(O)[C@H]3C[C@@H]12`, for which the survivor count under setting [5] is 0 of 6, the survivor count under setting [6] was 0 of 6 and the survivor count under setting [7] is on record as 0 of 6.

For the compound `OCC1C2CCC(O2)C1CO` (configuration not stated), under “dose: 3.0 mg/kg/injection, schedule: Q04DX002 (ip), vehicle: saline”, the T/C was 125 % of control. The survivor count reads like this: (dose: 200.0 mg/kg/injection, schedule: Q04DX002 (ip), vehicle: saline) 1 of 3; (dose: 400.0 mg/kg/injection, schedule: Q04DX002 (ip), vehicle: saline) 0 of 3.

For `O=C(O)c1ccccc1S(=O)O`, the survivor count (dose: 100.0 mg/kg/injection, schedule: Q04DX002 (ip), vehicle: Klucel (hydroxypropylcellulose) (HPC)) was 3 of 3.

Take `CSc1ncnc2c1nnn2C1OC(COC(=O)c2ccccc2)C(OC(=O)c2ccccc2)C1OC(=O)c1ccccc1` (configuration not stated): the survivor count by setting is: (dose: 200.0 mg/kg/injection, schedule: Q01DX009 (ip), vehicle: gum acacia) 6 of 6; (dose: 400.0 mg/kg/injection, schedule: Q01DX001 (ip), vehicle: gum acacia) 6 of 6.

On to `Cc1ccc(NC(=O)CC#N)c(C)c1`, for which the survivor count (dose: 400.0 mg/kg/injection, schedule: Q04DX002 (ip), vehicle: saline with Tween-80) was 1 of 3.
